# Measured values published in article PMC7862700.
# Amino acid sequences for entries named in this document (tags omitted). A change or cut given only in a name is not applied to a line headed by its entry.
# UniProt Q9Y603: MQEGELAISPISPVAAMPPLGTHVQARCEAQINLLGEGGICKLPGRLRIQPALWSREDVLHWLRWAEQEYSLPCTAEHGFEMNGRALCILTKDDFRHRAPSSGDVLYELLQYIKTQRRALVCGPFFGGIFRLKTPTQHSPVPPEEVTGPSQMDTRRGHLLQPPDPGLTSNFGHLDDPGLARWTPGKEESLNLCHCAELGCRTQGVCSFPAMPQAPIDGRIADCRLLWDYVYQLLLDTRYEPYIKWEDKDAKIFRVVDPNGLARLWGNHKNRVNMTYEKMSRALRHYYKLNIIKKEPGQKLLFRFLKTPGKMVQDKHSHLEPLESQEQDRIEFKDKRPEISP
# UniProt P41212: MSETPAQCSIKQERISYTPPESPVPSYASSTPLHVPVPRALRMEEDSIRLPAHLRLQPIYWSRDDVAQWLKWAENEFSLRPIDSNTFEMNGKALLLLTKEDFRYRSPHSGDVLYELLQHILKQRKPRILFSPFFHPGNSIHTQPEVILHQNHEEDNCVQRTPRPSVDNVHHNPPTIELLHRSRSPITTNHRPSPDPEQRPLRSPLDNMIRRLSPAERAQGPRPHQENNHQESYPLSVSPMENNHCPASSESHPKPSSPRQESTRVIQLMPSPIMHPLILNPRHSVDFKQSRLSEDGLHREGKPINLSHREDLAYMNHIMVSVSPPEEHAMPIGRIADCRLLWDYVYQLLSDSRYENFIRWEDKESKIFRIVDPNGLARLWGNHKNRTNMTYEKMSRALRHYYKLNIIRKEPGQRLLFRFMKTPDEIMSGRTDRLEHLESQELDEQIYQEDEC
# The list shows a part of the results, in another mix than the full data. At the low end of the ranking, values are background and their order means little.
# What was measured:
# Test in all cases: DAPPL (digital affinity profiling via proximity ligation, sequencing)
# Settings in all cases: 10 mM Tris-HCl pH 7.5, 50 mM NaCl, 1 mM DTT, 4% glycerol, room temperature, 30 min; GST-TFs on glutathione beads, 16-mer random dsDNA library, 0.1% …; high values mean tight binding; double strand, one strand shown; scale: fold enrichment (6-mer frequency, TF over GST control)
# [1] = target: T1, ELF3 (UniProt P78545)
# T1 sequence: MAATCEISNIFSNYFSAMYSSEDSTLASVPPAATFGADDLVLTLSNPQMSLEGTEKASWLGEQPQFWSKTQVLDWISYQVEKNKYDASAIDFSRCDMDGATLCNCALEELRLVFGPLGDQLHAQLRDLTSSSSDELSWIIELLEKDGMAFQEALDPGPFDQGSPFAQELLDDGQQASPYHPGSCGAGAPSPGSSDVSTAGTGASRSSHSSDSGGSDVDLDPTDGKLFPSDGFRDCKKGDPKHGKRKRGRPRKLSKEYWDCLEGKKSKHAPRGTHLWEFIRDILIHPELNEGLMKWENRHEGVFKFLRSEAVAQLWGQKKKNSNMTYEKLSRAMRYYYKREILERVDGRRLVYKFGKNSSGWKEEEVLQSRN
# [2] = target: ETV7 (UniProt Q9Y603)
# [3] = target: ETV6 (UniProt P41212)
Sequence,binding signal [1],binding signal [2],binding signal [3]
AGACAG,0.493,0.591,0.48
GACGGT,0.384,0.502,0.491
GCCGGG,0.438,0.455,0.406
GGACCA,0.791,0.684,0.691
ACGCAT,0.859,0.746,0.786
GAGATT,0.661,0.768,0.714
GGTCGT,0.642,0.68,0.618
AGTGAG,0.225,0.308,0.278
GATCCG,0.887,0.934,0.925
GAGCGG,0.491,0.517,0.545
ATGTGA,0.704,0.727,0.646
GGAATC,0.721,0.762,0.749
AGCGCG,0.776,0.841,0.762
AGGCGC,0.537,0.662,0.607
CAGCAA,0.909,–,0.924
GTAGAC,0.832,0.775,0.733
CCAGGC,0.438,0.518,0.436
GGACCC,0.866,0.791,0.865
GGGCAG,0.527,0.659,0.607
CGAGAG,0.412,0.466,0.373
GCGCGG,0.885,–,0.821
GAACAG,0.932,–,0.9
GGAGCG,0.338,0.402,0.429
CAAAGG,0.88,0.85,0.802
ACGGGT,0.853,–,0.763
GCATGC,0.986,0.801,0.913
AGAGGC,0.691,0.745,0.733

# Look-ups from above:
# In binding signal [3], GCATGC shows 0.913
# In binding signal [1], GGTCGT shows 0.642
# In binding signal [2], CGAGAG shows 0.466

# The list goes on.

Sequence,binding signal [1],binding signal [2],binding signal [3]
CAACAG,1.03,0.967,0.961
AGGCTG,0.478,0.635,0.623
GGGGAG,0.395,0.425,0.403
GTAGGC,0.617,0.819,0.698
GACAAA,0.833,–,0.953
CGTAGG,0.562,0.65,0.677
AGGCCT,0.978,–,0.929
GGCGCC,0.736,0.575,0.778
CAAGAG,0.932,0.776,0.746
AAGACA,0.979,–,0.983
CGCAGA,0.911,0.807,0.786
CGAGCG,0.972,0.973,0.893
GAAGGG,0.796,0.845,0.899
TGAGAG,0.579,0.608,0.587
GGGCGT,0.521,0.56,0.517
GTAGTA,0.956,–,0.94
GGGCTG,0.927,–,0.924
GACGCT,0.863,0.776,0.696
CGGACA,0.848,0.881,0.808
CAGGCC,0.686,0.745,0.657
GGTGCA,0.874,0.994,0.792
TGAGTG,0.388,0.419,0.447
CAGCGA,0.842,–,0.796
TCAGAA,0.884,0.886,0.943
GGATGA,0.859,–,0.937
CGCATT,0.768,0.745,0.767
